The record followed here is article doi:10.1101/2025.01.06.631460 (bioRxiv, 2025).

Read-outs that look alike come from different tables or passages of the source. These are yes or no findings as the source states them, for the method shown. Binding seen in cells or lysates may run through a third protein. For some assays here: Binding can be weak; no strength is given.

Common to all, as to assay: FRET or BRET
In test [1] the target is T1, CNGC14-mCitrine (Arabidopsis thaliana) (UniProt Q9SJA4).
T1 sequence: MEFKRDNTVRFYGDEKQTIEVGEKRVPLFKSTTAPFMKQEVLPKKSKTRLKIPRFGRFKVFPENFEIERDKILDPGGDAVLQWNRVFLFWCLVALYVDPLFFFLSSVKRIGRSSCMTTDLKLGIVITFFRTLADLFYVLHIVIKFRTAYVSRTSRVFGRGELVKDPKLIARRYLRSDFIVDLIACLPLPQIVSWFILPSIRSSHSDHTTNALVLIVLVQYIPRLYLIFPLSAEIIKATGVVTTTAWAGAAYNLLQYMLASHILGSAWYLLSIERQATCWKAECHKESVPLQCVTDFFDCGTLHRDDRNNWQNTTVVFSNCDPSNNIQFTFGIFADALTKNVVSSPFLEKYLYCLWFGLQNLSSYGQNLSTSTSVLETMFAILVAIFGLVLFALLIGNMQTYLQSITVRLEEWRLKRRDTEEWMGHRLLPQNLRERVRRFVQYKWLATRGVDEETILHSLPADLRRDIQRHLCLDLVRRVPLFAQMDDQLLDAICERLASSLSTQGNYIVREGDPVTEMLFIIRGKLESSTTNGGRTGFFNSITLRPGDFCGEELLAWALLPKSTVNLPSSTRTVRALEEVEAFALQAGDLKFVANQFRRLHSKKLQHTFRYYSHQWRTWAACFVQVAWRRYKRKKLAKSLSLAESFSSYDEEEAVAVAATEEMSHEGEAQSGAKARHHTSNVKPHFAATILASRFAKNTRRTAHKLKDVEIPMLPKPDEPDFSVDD

Test [2] has as its target CNGC14ΔIQ (Arabidopsis thaliana) (UniProt Q9SJA4).
In test [3] the target is T2, CNGC2-mCitrine (Arabidopsis thaliana) (UniProt O65718).
T2 sequence: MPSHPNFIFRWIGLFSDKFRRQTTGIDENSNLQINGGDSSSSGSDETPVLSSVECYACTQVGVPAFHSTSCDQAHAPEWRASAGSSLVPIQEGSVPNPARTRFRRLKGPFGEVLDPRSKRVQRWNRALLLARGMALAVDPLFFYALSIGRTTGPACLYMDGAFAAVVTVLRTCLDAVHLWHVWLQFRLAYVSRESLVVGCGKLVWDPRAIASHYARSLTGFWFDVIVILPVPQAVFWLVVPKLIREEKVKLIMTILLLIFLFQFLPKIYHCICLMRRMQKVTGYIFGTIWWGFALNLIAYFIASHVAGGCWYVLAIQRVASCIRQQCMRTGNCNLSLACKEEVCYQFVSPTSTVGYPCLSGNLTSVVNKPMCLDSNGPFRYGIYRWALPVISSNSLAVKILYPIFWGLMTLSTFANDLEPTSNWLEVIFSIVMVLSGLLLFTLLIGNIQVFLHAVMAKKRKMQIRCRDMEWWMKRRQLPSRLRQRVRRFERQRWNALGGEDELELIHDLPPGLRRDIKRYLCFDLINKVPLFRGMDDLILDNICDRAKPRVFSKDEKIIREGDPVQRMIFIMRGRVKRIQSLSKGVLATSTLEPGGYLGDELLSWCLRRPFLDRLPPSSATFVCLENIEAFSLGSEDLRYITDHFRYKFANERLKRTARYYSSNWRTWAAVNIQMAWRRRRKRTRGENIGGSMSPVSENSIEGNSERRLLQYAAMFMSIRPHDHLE

Test [4] concerns the target T1, CNGC14-mCitrine (Arabidopsis thaliana). This is another data set of the same source.
The target in test [5] is T2, CNGC2-mCitrine (Arabidopsis thaliana). The source holds these as a separate data set.

As for ARO2-mCherry (from UniProt Q9FKW5), the binding result is reported as “binds” in test [1]; “no binding” in test [2]; “binds” in test [3]; “binds” in test [4]; “binds” in test [5].
